# Results from PubChem BioAssay AID651664 (NMMLSC, 2012).
# Out of some 1,800 compounds screened, fewer than 10 were called active.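 How the source made its calls: active means inhibition of granule release above a set limit; inactive means the rest.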 Some of the results follow.
# Assay: LAMP-1 surface externalization blockers in TALL-104 cells – cell-based, flow cytometry, validation set (AID 651664)
# Conditions: TALL-104 LAMP-1 externalization, at 15.2 µM, stronger effect = higher value, stimulated with thapsigargin and PMA
row,Compound,inhibition
1,S=C(Nc1cccc(Cl)c1)Nc1ccccc1Oc1ccccc1,inactive: -0.2%
2,Cc1ccc(C(O)CN2C3=NCCN3c3ccccc32)cc1 (centres undefined),inactive: -1.9%
3,COc1ccc(C(=O)O/N=C(\N)Cc2ccc(Cl)cc2)cc1OC,inactive: -2%
4,Cc1[nH]c2ccccc2c1/C=C/c1cc[n+](C)cc1,inactive: 3.8%
5,O=S(=O)(c1ccccc1)c1nc(-c2ccccc2)oc1NCc1cccnc1,inactive: 3.9%
6,CCOc1cc(C(=O)Nc2cc(=O)n(C)c(=O)n2C)cc(OCC)c1OCC,inactive: 6.6%
7,CCc1nc2c(c(SC)nn2-c2ccccc2)c(N)c1C(=O)OC,inactive: -0.6%
8,O=C1C2C(C(=O)N1/N=C/c1cc(Br)cc([N+](=O)[O-])c1O)C1C=CC2C12CC2 (centres undefined),inactive: 0%
9,Cc1cccc(-c2noc(-c3cc4ccccc4oc3=O)n2)c1,inactive: -1.4%
10,CC1=NN(C(N)=S)C(=O)C1N=Nc1ccccc1C (centres undefined),inactive: 1.6%
11,CCN1CCCC1CNc1ncnc2c1[nH]c1ccc(F)cc12 (centres undefined),inactive: 0.8%
12,O=C1CCC(=O)N1c1nc2nc(-c3ccccc3)cc(=O)n2[nH]1,inactive: -1.6%
13,CCOC(=O)C1CCCN(CC(=O)Nc2c(C(=O)OC)[nH]c3ccc(Br)cc23)C1 (centres undefined),inactive: 3.8%
14,COc1cc(/C=N/NC(=O)c2ccncc2)ccc1OC(=O)c1ccc([N+](=O)[O-])cc1,inactive: -2.9%
15,Clc1cc(Br)ccc1OCCOCCN1CCOCC1,inactive: -2.7%
16,N/C(=N\OC(=O)CCCN1C(=O)c2ccccc2C1=O)c1ccc(Br)cc1,inactive: -3.6%
17,C=CCn1c(=O)/c(=C\c2ccsc2)s/c1=C(/C#N)C(=O)NCCN1CCOCC1,inactive: -2.9%
18,CCOc1nnc(C)c2c(C)n(-c3ccc(Cl)cc3)nc12,inactive: 0.2%
19,N#CCCN1CCN(Cn2c3ccccc3c3ccccc32)CC1,inactive: 0.8%
20,O=C1C=C(Nc2ccc(Cl)cc2)CC(c2ccco2)C1 (centres undefined),inactive: -2.8%

row,Compound,inhibition
1,NC(=O)C(c1ccc(Cl)cc1)c1ccc(Sc2ccccc2)nn1 (centres undefined),inactive: -1.6%
2,CCN(CC)S(=O)(=O)c1cccc2cc(C(=O)O)c(O)cc12,inactive: 0.3%
3,Cc1ccc(S(=O)(=O)c2c(COC(=O)c3cccc(Cl)c3)c(-c3ccccc3)nn2C)cc1,inactive: 0.3%
4,CN(C)C(=O)c1ccc(-n2nc(C(F)(F)F)c3c2CCCC3)cc1,inactive: 1%
5,CCNc1nc(NCC)nc(N2CC(=O)N(CC(=O)OCC)C2=N)n1,inactive: -2.9%
6,CCOC(=O)N1CCC(NC(=O)c2ccc3nc(N4CCOCC4)sc3c2)CC1,inactive: 1%
7,CCOc1cc(CNc2ccc(N(C)C)cc2)cc(Br)c1OCC(=O)NC(C)(C)C,inactive: 0.2%
8,Cc1ccc(C(C)C)c(OCC(O)CN2CCN(CCO)CC2)c1 (centres undefined),inactive: -2.1%
9,CC1(C)Cc2c(c(N3CCOCC3)nc3sc4c(NCc5ccco5)nnnc4c23)CS1,inactive: 0.9%
10,CCCc1cc2c(cc1NC(=O)c1ccccc1Cl)OCO2,inactive: -1.3%
11,COc1ccc(NC(=O)CN2C(=O)c3cccc4cccc2c34)c(OC)c1,inactive: -1.7%
12,COC(=O)[C@@H](NC(=O)N1CCN(c2cccc(C(F)(F)F)c2)CC1)C(C)C,inactive: -1.3%
13,CC(OC(=O)Cn1c(C(F)(F)F)nc2ccccc21)C(=O)N1CCCc2ccccc21 (centres undefined),inactive: 3.5%
14,CCCCCNc1nc2ccccc2nc1NS(=O)(=O)c1cccs1,inactive: 0.3%
15,Cc1cc(NC(=O)c2cc3n(n2)C(C(F)(F)F)CC(c2ccco2)N3)n(-c2ccccc2)n1 (centres undefined),inactive: 3.7%
16,COCCn1c(SCC(=O)Nc2cccc(S(N)(=O)=O)c2)nc2ccccc21,inactive: -1.1%
17,COc1cc2c(cc1NC(=O)C(C)OC(=O)C1CC(=O)N(Cc3ccco3)C1)oc1ccccc12 (centres undefined),inactive: 1.8%
18,CCOC(=O)Nc1nc(C)c(C(=O)c2ccc(Cl)cc2)s1,inactive: -2.2%
19,CCCc1nnc(NC(=O)CC(=O)Nc2ccccc2C(=O)O)s1,inactive: 1.2%
20,Cc1ccc(NC(=O)Nc2cccs2)cc1,inactive: -2.6%

row,Compound,inhibition
1,CC(C)(C)N(NC(=O)Nc1ccc(Cl)c(Cl)c1)C(=O)c1ccccc1,inactive: -5.3%
2,O=C(O)c1cccc(Cn2c(Cl)c(/C=N/NC(=O)c3ccccc3Cl)sc2=O)c1,inactive: 4%
3,CC(=O)Nc1ccc(C(=O)CSc2ncn(-c3ccccc3)n2)cc1,inactive: -3.6%
4,Cc1ccc(-c2nn3c(C)nnc3c3ccccc23)cc1S(=O)(=O)NC(C)c1ccccc1 (centres undefined),inactive: 8.1%
5,O=C(/C=N/O)Nc1ccc(F)cc1,inactive: -2.8%
6,CCOC(=O)C1CCN(C(=O)COc2cc(C)c(Br)cc2C)CC1,inactive: 0.2%
7,O=C(O)c1cc(NCc2ccc(F)cc2)ccc1N1CCOCC1,inactive: -4.1%
8,CCOC(=O)/C(=C\c1cccnc1)C(=O)c1cc(C(C)=O)c(Nc2ccccc2)s1,inactive: -1.3%
9,CCCn1c2c(c(O)c(C(=O)Nc3ncccc3O)c1=O)CCCC2,inactive: -0.4%
10,NC(=S)N/N=C/c1ccc(-c2cccc([N+](=O)[O-])c2)o1,inactive: 1.9%
11,COC(=O)C1=C(N)Oc2cc(C)n(Cc3cccnc3)c(=O)c2C1c1ccc(OC)c(OC)c1OC (centres undefined),inactive: -0.4%
12,O=C(CSc1nc2ccccc2o1)NC(=O)NCc1ccccc1,inactive: -3.4%
13,Cc1cc(=O)oc(C)c1C(=O)NCCc1ccccc1,inactive: -4.7%
14,Cc1cc(NC(=O)C2C3C(=O)N(Cc4ccc(Cl)cc4)C(C(=O)NC4CCCCC4)C34C=CC2(C)O4)no1 (centres undefined),inactive: 0.3%
15,COc1cccc(CNC(=O)c2cc3oc4ccccc4c3n2C)c1OC,inactive: -1.6%
16,COc1ccc(C(=O)/C=C/Nc2c(C)n(C)n(-c3ccccc3)c2=O)cc1OC,inactive: -1.5%
17,COC(=O)c1ccc(Oc2nc(Nc3ccc(F)cc3)nc(N3CCCC3)n2)cc1,inactive: 0.5%
18,COc1cccc(NC(=O)CNC(C)CCC(C)C)c1 (centres undefined),inactive: 1.5%
19,CC1(C)CC(=O)C2=C(C1)Oc1ncn3nc(-c4cccnc4)nc3c1C2c1ccccc1 (centres undefined),inactive: -0.9%

# Entries above with an NH in an aromatic ring (four):
row,Compound,inhibition
4,Cc1[nH]c2ccccc2c1/C=C/c1cc[n+](C)cc1,inactive: 3.8%
11,CCN1CCCC1CNc1ncnc2c1[nH]c1ccc(F)cc12 (centres undefined),inactive: 0.8%
12,O=C1CCC(=O)N1c1nc2nc(-c3ccccc3)cc(=O)n2[nH]1,inactive: -1.6%
13,CCOC(=O)C1CCCN(CC(=O)Nc2c(C(=O)OC)[nH]c3ccc(Br)cc23)C1 (centres undefined),inactive: 3.8%
